No constants are given. Whether binding was seen depends on the method and setting. Some binding calls cover weakened binding; strength is not graded here.
Biological target: Gαs proteins (rat) (UniProt P63095)
Test: immunofluorescence confocal co-staining of liver sections of PCK rats, with or without oleanolic acid

By UniProt entry, the sequences of proteins in these tests, tags left out. Residues count along the entry.
UniProt P63095, residues 2-394: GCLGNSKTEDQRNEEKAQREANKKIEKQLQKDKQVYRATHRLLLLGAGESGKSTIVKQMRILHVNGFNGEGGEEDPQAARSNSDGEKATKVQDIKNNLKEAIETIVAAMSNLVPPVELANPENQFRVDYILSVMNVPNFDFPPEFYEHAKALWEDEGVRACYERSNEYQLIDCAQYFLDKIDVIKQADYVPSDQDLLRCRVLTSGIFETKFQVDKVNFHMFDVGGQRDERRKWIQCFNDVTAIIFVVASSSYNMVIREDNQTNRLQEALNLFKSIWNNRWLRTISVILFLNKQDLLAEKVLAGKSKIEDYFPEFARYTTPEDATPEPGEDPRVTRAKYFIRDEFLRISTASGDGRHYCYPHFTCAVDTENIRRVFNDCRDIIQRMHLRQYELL

B1: TGR5 (receptor, rat, UniProt Q80T02 1-329, looked up)
chain: MMSHNTTELSAIPRGVQELSLVLASLIVIANLLLALGIVLDRHLRSPPAGCFFLSLLLAGLLTGLALPTLPGLWNRSHQGYWSCLLLHLAPNFCFLSLLANLLLVHGERYMAVLQPLRPHGSVRLALFLTWISSLLFASLPALGWNHWSPGANCSSQAIFPAPYLYLEVYGLLLPAVGATALLSVRVLATAHHQLREIRRLERAVCRDAPSTLARALTWRQARAQAGATLLFLLCWGPYVATLLLSVLAYERRPPLGPVTLLSLISLGSASAAVVPVAMGLGDQRYTAPWRTAAQRWLQVLRGRPKRANPGPSTAYHSSSQCSTDLDLN
  binding: binds
